Test results published in patent publication EP4772186A1, “USE AND COMPOSITION OF POSTBIOTIC OF LACTOBACILLUS PARACASEI ET-22” (Inner Mongolia Yili Industrial Group Co., Ltd., priority 2023, dated 2026).
Not every detail of the peptide structures is certain; ends, links or a residue may be inferred. Non-standard residues stand in square brackets, D forms with d. Residues, ends and D or L forms follow the SMILES beside them. Hyp = O=C(O)[C@@H]1C[C@@H](O)CN1

What was measured:
[1] = tested on: biofilm; experiment: confocal laser scanning microscopy (CLSM) of biofilm thickness; assay type: cell-based, halitosis subjects (saliva); settings: compared with CK group; HA disc; pure components 100 µg/ml; others from 1.0×10^9 CFU/ml; 37°C 10 hours
[2] = tested on: Solobacterium moorei; experiment: in vitro oral biofilm model, sequencing: relative abundance; assay type: cell-based; settings: relative to ET-22 viable bacteria or ET-22 heat-inactivated bacteria
[3] = tested on: halitosis virulence factors, including cdl, fadA, mgl, and gtfb; experiment: RT-PCR of virulence factors in multi-species biofilm; assay type: cell-based; settings: compared with CK group, 2^-△△CT method
[4] = tested on: fadA; experiment: as above; assay type: cell-based, Fusobacterium nucleatum; settings: relative to ET-22 viable bacteria (ET22-L) and ET-22 heat-inactivated bacteria (ET22-HK)
[5] = tested on: cdl; experiment: as above; assay type: cell-based; settings: relative to ET22-L and ET22-HK

Compound: C[C@H](NC(=O)CNC(=O)[C@@H]1C[C@@H](O)CN1C(=O)[C@@H]1CCCN1C(=O)CN)C(=O)NCC(=O)O [GP(Hyp)GAG, Gly-Pro-Hyp-Gly-Ala-Gly] (H-GP[Hyp]GAG-OH)
- biofilm thickness [1]: significantly reduce biofilm thickness
- inhibitory effect on Solobacterium moorei [2]: better
- expression of virulence factors (cdl, fadA, mgl, gtfb) [3]: significantly regulate
- inhibitory effect on the expression of virulence factor fadA [4]: better
- inhibitory effect on virulence factor cdl [5]: better
